The source of these data is paper PMC12140432.

In this data set the test system is PBX1. The data set is described as follows: EMSA. The note with it: nuclear extract, poly(dI-dC), LightShift EMSA: 50 ng/ul poly(dI-dC), 2.5% glycerol, 0.05% NP-40, 5 mM MgCl2, 20 fmol biotin DNA, 0.6 ug extract in 20 ul, room temperature 20 min, 5% PAGE in 0.5X TBE, protein in a lysate after overexpression, label: 5' biotin. (Mobility shift assays separate free from complexed probe on a gel.)

The exact form of at least one protein or probe is not confirmed. Results from cells or extracts need not show a direct contact. A negative result means that nothing was seen under these conditions.

For the sequence “CCCCCCCCCCCCGCCCCCCTCTGAA (double strand) [SFE1A]”, the binding result (direct or indirect binding) is “binds”. On the same count and under the same terms, the same measure for “CGAGGCGAAGGGCGGGGGGCTGCGG (double strand) [SFE1C]”: “binds”. Turning to “TAATGCATTCGGCGGCTATTCCCCG (double strand) [SFE1B]”, the binding result is given as “no binding”.
